PubChem BioAssay AID686938, Drosophila RNAi Screening Center, 2013
In all, the deposit lists about 23,000 reagents; this is a random part of those that have a named target and a result. Over the whole deposit, 75 (0.33%) were called active. 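Raw plate signals without normalisation; calls rest on plate z-scores that were not deposited; ratio present for only 364 wells.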 A number with no mark means an inactive call. Reagent sequences are not shown. Not stated in the record: the dose of the treatment.

Aim: 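Knock-downs reducing store-operated calcium influx in Drosophila cells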 (primary screen)
System: Drosophila S2R+ cells
Knock-down reagent: long dsRNA against Drosophila genes, about 0.25 µg dsRNA per well, roughly 10,000 cells
Duration: 5 days of knock-down before the calcium assay
Conditions: thapsigargin (SERCA pump blocker) to empty calcium stores; entry signal taken 4 min after adding it
Measurement: 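Duplicate raw fluo-4 intensities per well from a plate reader, at rest and four minutes after thapsigargin emptied calcium stores; entry-to-rest ratio filled for only some wells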
Direction: calcium entry signal: higher = stronger calcium signal after store depletion; entry to resting ratio: higher = more calcium entry relative to resting level; resting calcium signal: higher = higher resting calcium signal
Units: calcium entry signal in fluorescence units; resting calcium signal in fluorescence units
Call rule: 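Called when the plate z-score of the entry-to-rest ratio, mean of duplicates, falls below −3; wells with low overall dye signal (Fmax z below −2) or more than five off-targets excluded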
Meaning of the calls: active = strongly reduced calcium entry; inactive = no strong reduction

The opening 2 entries, ahead of the listing:
Sumo [DRSC03611] → calcium entry signal, replicate 1 = 1.57e7 (active); resting calcium signal, replicate 1 = 1.48e7
CYTB (retired record) [DRSC21272] → calcium entry signal, replicate 1 = 3.21e7; calcium entry signal, replicate 2 = 3.42e7; resting calcium signal, replicate 1 = 1.89e7; resting calcium signal, replicate 2 = 1.53e7

The list itself, repeating the preview:
Sumo [DRSC03611] → calcium entry signal, replicate 1 = 1.57e7 (active); resting calcium signal, replicate 1 = 1.48e7
CYTB (retired record) [DRSC21272] → calcium entry signal, replicate 1 = 3.21e7; calcium entry signal, replicate 2 = 3.42e7; resting calcium signal, replicate 1 = 1.89e7; resting calcium signal, replicate 2 = 1.53e7
CG43190 [DRSC05316] → calcium entry signal, replicate 1 = 3.91e7; calcium entry signal, replicate 2 = 2.66e7; resting calcium signal, replicate 1 = 1.91e7; resting calcium signal, replicate 2 = 1.09e7
Myo61F [DRSC22144] → calcium entry signal, replicate 1 = 2.66e7; calcium entry signal, replicate 2 = 3.50e7; resting calcium signal, replicate 1 = 1.33e7; resting calcium signal, replicate 2 = 1.55e7
CG43063 [DRSC12948] → calcium entry signal, replicate 1 = 2.54e7; calcium entry signal, replicate 2 = 2.94e7; resting calcium signal, replicate 1 = 1.19e7; resting calcium signal, replicate 2 = 1.33e7
CG12547 [DRSC07759] → calcium entry signal, replicate 1 = 3.07e7; calcium entry signal, replicate 2 = 4.41e7; resting calcium signal, replicate 1 = 1.50e7; resting calcium signal, replicate 2 = 1.86e7
CG10209 [DRSC05980] → calcium entry signal, replicate 1 = 4.56e7; calcium entry signal, replicate 2 = 4.76e7; resting calcium signal, replicate 1 = 1.94e7; resting calcium signal, replicate 2 = 2.15e7
CG34450 [DRSC17822] → calcium entry signal, replicate 1 = 3.87e7; calcium entry signal, replicate 2 = 4.67e7; resting calcium signal, replicate 1 = 1.88e7; resting calcium signal, replicate 2 = 2.19e7
CG44098 [DRSC12214] → calcium entry signal, replicate 1 = 2.90e7; calcium entry signal, replicate 2 = 2.81e7; resting calcium signal, replicate 1 = 1.50e7; resting calcium signal, replicate 2 = 1.36e7
CG44098 [DRSC12240] → calcium entry signal, replicate 1 = 3.02e7; calcium entry signal, replicate 2 = 4.78e7; resting calcium signal, replicate 1 = 1.45e7; resting calcium signal, replicate 2 = 2.03e7
CG44098 [DRSC12327] → calcium entry signal, replicate 1 = 3.03e7; calcium entry signal, replicate 2 = 4.54e7; resting calcium signal, replicate 1 = 1.53e7; resting calcium signal, replicate 2 = 2.12e7
CG3842 [DRSC18326] → calcium entry signal, replicate 1 = 2.03e7; calcium entry signal, replicate 2 = 3.15e7; resting calcium signal, replicate 1 = 1.05e7; resting calcium signal, replicate 2 = 1.26e7
CG13409 [DRSC14585] → calcium entry signal, replicate 1 = 4.62e7; calcium entry signal, replicate 2 = 4.33e7; resting calcium signal, replicate 1 = 5.74e7; resting calcium signal, replicate 2 = 2.16e7
alrm [DRSC14436] → calcium entry signal, replicate 1 = 3.66e7; calcium entry signal, replicate 2 = 5.18e7; resting calcium signal, replicate 1 = 1.97e7; resting calcium signal, replicate 2 = 2.33e7
lin-28 [DRSC10261] → calcium entry signal, replicate 1 = 3.32e7; calcium entry signal, replicate 2 = 3.89e7; resting calcium signal, replicate 1 = 1.76e7; resting calcium signal, replicate 2 = 1.63e7
CG3735 [DRSC04411] → calcium entry signal, replicate 1 = 2.48e7; resting calcium signal, replicate 1 = 1.31e7
CG11563 [DRSC14327] → calcium entry signal, replicate 1 = 2.87e7; calcium entry signal, replicate 2 = 3.97e7; entry to resting ratio = 1.8; resting calcium signal, replicate 1 = 1.56e7; resting calcium signal, replicate 2 = 1.73e7
CG32445 [DRSC11678] → calcium entry signal, replicate 1 = 3.13e7; calcium entry signal, replicate 2 = 5.06e7; resting calcium signal, replicate 1 = 1.53e7; resting calcium signal, replicate 2 = 2.32e7
CG14062 [DRSC14725] → calcium entry signal, replicate 1 = 4.46e7; calcium entry signal, replicate 2 = 5.64e7; resting calcium signal, replicate 1 = 2.26e7; resting calcium signal, replicate 2 = 2.44e7
CG2812 [DRSC04319] → calcium entry signal, replicate 1 = 3.91e7; calcium entry signal, replicate 2 = 4.15e7; resting calcium signal, replicate 1 = 2.00e7; resting calcium signal, replicate 2 = 2.11e7
Skel [DRSC14905] → calcium entry signal, replicate 1 = 3.55e7; calcium entry signal, replicate 2 = 3.36e7; resting calcium signal, replicate 1 = 1.64e7; resting calcium signal, replicate 2 = 1.72e7
Skel [DRSC14906] → calcium entry signal, replicate 1 = 3.29e7; calcium entry signal, replicate 2 = 4.38e7; resting calcium signal, replicate 1 = 1.52e7; resting calcium signal, replicate 2 = 1.90e7
